# The list does not hold the whole screen: it gathers some chemical classes. Other doses and runs of a compound may be missing. T/C: endpoint of the treated group in % of that of the vehicle group. Some entries give survivors of the animals treated and no T/C: the source files T/C as zero there, which appears to mark a toxic dose or a test without result, not a measured value. Some doses without a T/C left all or most animals alive at the check, yet need not have been tolerated: survival well below the control is almost never listed, so the zero probably covers shortened survival too. Survivors were counted at the toxicity check, usually on the fifth day, unless a day is given; later deaths do not show. Schedules are NCI's codes, read here as Q, the interval in days (D) or hours (H), X, the number of doses. Where survival is the endpoint, this PubChem deposit counts one and a half times the control or more as active, and values a quarter to a half above the control carry no call in these data; other NCI protocols may use other cut-offs. Counts like (3×) stand for listed records that agree. Some T/C values carry the count of animals alive at the toxicity check (mostly the fifth day); where neither a count nor a note follows, no animal had died by that day. Some doses were run more than once; the values are given in rising order.
# Tested on: L1210 leukemia ip in BDF1 mice, survival T/C
# Experiment: NCI In Vivo Anticancer Drug Screen. Data for tumor model L1210 Leukemia (intraperitoneal) in B6D2F1 (BDF1) mice
# Settings: T/C endpoint: mean survival time, higher T/C = longer survival
# [1] = dose: 400.0 mg/kg/injection, schedule: Q01DX015 (ip), vehicle: saline
# [2] = dose: 600.0 mg/kg/injection, schedule: Q01DX015 (ip), vehicle: saline
smiles,measurement,setting,value
COC1OC(CNCCCl)C2OC(C)(C)OC12 (stereo unspecified),T/C,"dose: 100.0 mg/kg/injection, schedule: Q01DX015 (ip), vehicle: water",96 and 100 % of control
same,T/C,"dose: 128.0 mg/kg/injection, schedule: Q01DX001 (ip), vehicle: saline",105 % of control
same,T/C,"dose: 128.0 mg/kg/injection, schedule: Q01DX001 (oral), vehicle: saline",96 % of control
same,T/C,"dose: 128.0 mg/kg/injection, schedule: Q01DX001 (sc), vehicle: saline",109 % of control
same,T/C,"dose: 128.0 mg/kg/injection, schedule: Q01DX005 (ip), vehicle: saline",97 % of control
same,T/C,"dose: 128.0 mg/kg/injection, schedule: Q01DX006 (iv), vehicle: saline",106 % of control
same,T/C,"dose: 128.0 mg/kg/injection, schedule: Q01DX009 (ip), vehicle: saline",89 % of control
same,T/C,"dose: 128.0 mg/kg/injection, schedule: Q01DX009 (oral), vehicle: saline",96 % of control
same,T/C,"dose: 128.0 mg/kg/injection, schedule: Q01DX009 (sc), vehicle: saline",98 % of control
same,T/C,"dose: 128.0 mg/kg/injection, schedule: Q03HX008 (ip), vehicle: saline",104 % of control
same,T/C,"dose: 128.0 mg/kg/injection, schedule: Q03HX016 (ip), vehicle: saline",93 % of control
same,T/C,"dose: 128.0 mg/kg/injection, schedule: Q04DX003 (ip), vehicle: saline",92 % of control
same,T/C,"dose: 128.0 mg/kg/injection, schedule: Q08DX002 (ip), vehicle: saline",88 % of control
same,T/C,"dose: 200.0 mg/kg/injection, schedule: Q01DX005 (ip), vehicle: saline",100 and 107 % of control [5 of 6 alive]
same,T/C,"dose: 200.0 mg/kg/injection, schedule: Q01DX009 (ip), vehicle: water",103 % of control
same,T/C,"dose: 200.0 mg/kg/injection, schedule: Q01DX015 (ip), vehicle: clinical formulation",94 and 102 % of control
same,T/C,"dose: 200.0 mg/kg/injection, schedule: Q01DX015 (ip), vehicle: saline, evaluated on day 30","93, 94, 102, 104, 109, 113 % of control"
same,survivor count,"dose: 200.0 mg/kg/injection, schedule: Q01DX015 (ip), vehicle: saline",6 of 6
same,T/C,"dose: 200.0 mg/kg/injection, schedule: Q01DX015 (ip), vehicle: saline, run until all animals had died",152 and 155 % of control
same,T/C,"dose: 200.0 mg/kg/injection, schedule: Q01DX015 (ip), vehicle: water",94 % of control (2×)
same,T/C,"dose: 256.0 mg/kg/injection, schedule: Q01DX001 (ip), vehicle: saline",95 % of control
same,T/C,"dose: 256.0 mg/kg/injection, schedule: Q01DX001 (oral), vehicle: saline",94 % of control
same,T/C,"dose: 256.0 mg/kg/injection, schedule: Q01DX001 (sc), vehicle: saline",102 % of control
same,T/C,"dose: 256.0 mg/kg/injection, schedule: Q01DX005 (ip), vehicle: saline",102 % of control
same,survivor count,"dose: 256.0 mg/kg/injection, schedule: Q01DX006 (iv), vehicle: saline",3 of 10
same,T/C,"dose: 256.0 mg/kg/injection, schedule: Q01DX009 (ip), vehicle: saline",100 % of control
same,T/C,"dose: 256.0 mg/kg/injection, schedule: Q01DX009 (oral), vehicle: saline",104 % of control
same,T/C,"dose: 256.0 mg/kg/injection, schedule: Q01DX009 (sc), vehicle: saline",102 % of control
same,T/C,"dose: 256.0 mg/kg/injection, schedule: Q04DX003 (ip), vehicle: saline",95 % of control
same,T/C,"dose: 256.0 mg/kg/injection, schedule: Q08DX002 (ip), vehicle: saline",98 % of control
same,T/C,"dose: 300.0 mg/kg/injection, schedule: Q01DX005 (ip), vehicle: saline",98 [5 of 6 alive] and 105 % of control
same,T/C,"dose: 300.0 mg/kg/injection, schedule: Q01DX015 (ip), vehicle: clinical formulation",105 and 109 % of control
same,T/C,"dose: 300.0 mg/kg/injection, schedule: Q01DX015 (ip), vehicle: saline, evaluated on day 30","115, 121, 122 % of control"
same,survivor count,"dose: 300.0 mg/kg/injection, schedule: Q01DX015 (ip), vehicle: saline",5 of 6
same,T/C,"dose: 300.0 mg/kg/injection, schedule: Q01DX015 (ip), vehicle: saline, run until all animals had died","170, 171, 180 % of control"
same,T/C,"dose: 300.0 mg/kg/injection, schedule: Q01DX015 (ip), vehicle: water",115 [5 of 6 alive] and 120 % of control
same,T/C,"dose: 400.0 mg/kg/injection, schedule: Q01DX005 (ip), vehicle: saline",105 and 110 % of control
same,T/C,"dose: 400.0 mg/kg/injection, schedule: Q01DX009 (ip), vehicle: water",86 % of control
same,T/C,[1],182 % of control
same,survivor count,[1],0 of 6
same,T/C,"dose: 512.0 mg/kg/injection, schedule: Q01DX001 (ip), vehicle: saline",103 % of control
same,T/C,"dose: 512.0 mg/kg/injection, schedule: Q01DX001 (oral), vehicle: saline",101 % of control
same,T/C,"dose: 512.0 mg/kg/injection, schedule: Q01DX001 (sc), vehicle: saline",101 % of control
same,T/C,"dose: 512.0 mg/kg/injection, schedule: Q01DX005 (ip), vehicle: saline",102 % of control [9 of 10 alive]
same,T/C,"dose: 512.0 mg/kg/injection, schedule: Q01DX009 (oral), vehicle: saline",98 % of control
same,T/C,"dose: 512.0 mg/kg/injection, schedule: Q04DX003 (ip), vehicle: saline",97 % of control
same,T/C,"dose: 512.0 mg/kg/injection, schedule: Q08DX002 (ip), vehicle: saline",98 % of control
same,survivor count,"dose: 600.0 mg/kg/injection, schedule: Q01DX009 (ip), vehicle: water",7 of 10
same,T/C,[2],139 % of control
same,survivor count,[2],0 of 6
same,survivor count,"dose: 800.0 mg/kg/injection, schedule: Q01DX009 (ip), vehicle: water",0 of 10
same,T/C,"dose: 1024.0 mg/kg/injection, schedule: Q01DX001 (ip), vehicle: saline",101 % of control [8 of 10 alive]
same,T/C,"dose: 1024.0 mg/kg/injection, schedule: Q01DX001 (oral), vehicle: saline",95 % of control
same,T/C,"dose: 1024.0 mg/kg/injection, schedule: Q01DX001 (sc), vehicle: saline",101 % of control
same,survivor count,"dose: 1024.0 mg/kg/injection, schedule: Q01DX009 (oral), vehicle: saline",6 of 10
same,survivor count,"dose: 1024.0 mg/kg/injection, schedule: Q08DX002 (ip), vehicle: saline",5 of 10
